Measurements taken from patent US20140227708A1.
No constants are given. Whether binding was seen depends on the method and setting. In cells and extracts the contact can be indirect. Some entries that bind do so weakly or less than the wild type. Where a sequence is shown, tags or fusion partners need not be part of it. Values belong to the binder of their own block, whether it stands above or below them.

Key:
[1] = molecular target: myc-Ago2 (Homo sapiens (Human)) (UniProt Q9UKV8); assay: anti-myc co-immunoprecipitation, anti-FLAG Western blot (FIG. 6)
[2] = molecular target: endogenous Argonaute 2 (Ago2) (human) (UniProt Q9UKV8); assay: FLAG co-immunoprecipitation, anti-Ago2 Western blot (FIG. 12)
[3] = molecular target: myc-Ago2 (Homo sapiens (Human)) (UniProt Q9UKV8); assay: anti-myc co-immunoprecipitation from myc-Ago2 stable cell line, anti-FLAG Western blot (FIG. 6)
[4] = molecular target: endogenous Argonaute 2 (Ago2) (human) (UniProt Q9UKV8); assay: FLAG-agarose co-immunoprecipitation, Western blot (FIG. 3)
[5] = molecular target: endogenous Argonaute 2 (Ago2) (human) (UniProt Q9UKV8); assay: anti-FLAG co-immunoprecipitation from HEK293T lysate, Western blot (FIG. 3)
[6] = molecular target: endogenous Argonaute 1 (Ago1) (human) (UniProt Q9UL18); assay: FLAG-agarose co-immunoprecipitation, Western blot (FIG. 4)
[7] = molecular target: endogenous Argonaute 2 (Ago2) (human) (UniProt Q9UKV8); assay: as above
[8] = molecular target: endogenous Argonaute 1 (Ago1) (human) (UniProt Q9UL18); assay: FLAG co-immunoprecipitation from HEK293T cells, Western blot (FIG. 4)
[9] = molecular target: endogenous Argonaute 2 (Ago2) (human) (UniProt Q9UKV8); assay: as above
[10] = molecular target: endogenous Argonaute 2 (Ago2) (human) (UniProt Q9UKV8); assay: co-immunoprecipitation, Western blot (FIG. 15)
[11] = molecular target: endogenous Argonaute 1 (Ago1) (human) (UniProt Q9UL18); assay: FLAG co-immunoprecipitation from HEK293T lysate, Western blot (FIG. 4, lane 5)
[12] = molecular target: endogenous Argonaute 2 (Ago2) (human) (UniProt Q9UKV8); assay: as above

binding [1]: binds | binding [2]: binds | binding [3]: binds | binding [4]: binds | binding [5]: binds
B1: FLAG-HA-dominant negative TNRC6A (protein, not shown: small tags and cut ends)
chain: MDADSASSSESERNITIMASGNTGGEKDGLRNSTGLGSQNKFVVGSSSNNVGHGSSTGPWGFSHGAIISTCQVSVDAPESKSESSNNRMNAWGTVSSSSNGGLNPSTLNSASNHGAWPVLENNGLALKGPVGSGSSGINIQCSTIGQMPNNQSINSKVSGGSTHGTWGSLQETCESEVSGTQKVSFSGQPQNITTEMTGPNNTTNFMTSSLPNSGSVQNNELPSSNTGAWRVSTMNHPQMQAPSGMNGTSLSHLSNGESKSGGSYGTTWGAYGSNYSGDKCSGPNGQANGDTVNATLMQPGVNGPMGTNFQVNTNKGGGVWESGAANSQSTSWGSGNGANSGGSRRGWGTPAQNTGTNLPSVEWNKLPSNQHSNDSANGNGKTFTNGWKSTEEEDQGSATSQTNEQSSVWAKTGGTVESDGSTESTGRLEEKGTGESQSRDRRKIDQHTLLQSIVNRTDLDPRVLSNSGWGQTPIKQNTAWDTETSPRGERKTDNGTEAWGSSATQTFNSGACIDKTSPNGNDTSSVSGWGDPKPALRWGDSKGSNCQGGWEDDSAATGMVKSNQWGNCKEEKAAWNDSQKNKQGWGDGQKSSQGWSVSASDNWGETSRNNHWGEANKKSSSGGSDSDRSVSGWNELGKTSSFTWGNNINPNNSSGWDESSKPTPSQGWGDPPKSNQSLGWGDSSKPVSSPDWNKQQDIVGSWGIPPATGKPPGTGWLGGPIPAPAKEEEPTGWEEPSPESIRRKMEIDDGTSAWGDPSKYNYKNVNMWNKNVPNGNSRSDQQAQVHQLLTPASAISNKEASSGSGWGEPWGEPSTPATTVDNGTSAWGKPIDSGPSWGEPIAAASSTSTWGSSSVGPQALSKSGPKSMQDGWCGDDMPLPGNRPTGWEEEEDVEIGMWNSNSSQELNSSLNWPPYTKKMSSKGLSGKKRRRERGMMKGGNKQEEAWINPFVKQFSNISFSRDSPEENVQSNKMDLSGGMLQDKRMEIDKHSLNIGDYNRTVGKGPGSRPQISKESSMERNPYFDKDGIVADESQNMQFMSSQSMKLPPSNSALPNQALGSIAGLGMQNLNSVRQNGNPSMFGVGNTAAQPRGMQQPPAQPLSSSQPNLRAQVPPPLLSPQVPVSLLKYAPNNGGLNPLFGPQQVAMLNQLSQLNQLSQISQLQRLLAQQQRAQSQRSVPSGNRPQQDQQGRPLSVQQQMMQQSRQLDPNLLV

binding [6]: binds | binding [7]: binds | binding [8]: binds | binding [9]: binds | binding [10]: binds | binding [11]: binds | binding [12]: binds
B2: FLAG-dominant-negative TNRC6A (protein, not shown: small tags and cut ends)
chain: B1 chain
